Construct, isoform or probe ends are uncertain for at least one entry. At least one result comes from cells or an extract, where the contact may be indirect. For part of these data: At least one verdict was read from the data and is not stated in words by the source.
Tests used:
FLAG-GATA4 [1] = target: FLAG-GATA4 (UniProt Q08369); test: streptavidin DNA pull-down, anti-GATA4/FLAG Western blot; details: without p300 (p300 increased recruitment); 20 mM Hepes pH 7.9, 1.5 mM MgCl2, 400 mM NaCl, 0.2 mM EDTA, 25% glycerol, 0.02% Tween, 0.3 mg/ml BSA, 0.1 mg/ml salmon sperm DNA, 2 h at 4 C; protein in a lysate after overexpression; protein details: FLAG; label: 5' biotin on sense strand
FLAG-GATA4 [2] = target: FLAG-GATA4 (UniProt Q08369); test: streptavidin DNA pull-down, Western blot; details: 20 mM Hepes pH 7.9, 1.5 mM MgCl2, 400 mM NaCl, 0.2 mM EDTA, 25% glycerol, 0.02% Tween, 0.3 mg/ml BSA, 0.1 mg/ml salmon sperm DNA, 2 h at 4 C, protein in a lysate after overexpression, protein details: FLAG, label: 5' biotin on sense strand

Protein sequences, listed by entry. Tags and fused reporters are not part of them. Lines headed by an entry give the natural chain unless they say otherwise; changes in a name come on top.
UniProt Q08369: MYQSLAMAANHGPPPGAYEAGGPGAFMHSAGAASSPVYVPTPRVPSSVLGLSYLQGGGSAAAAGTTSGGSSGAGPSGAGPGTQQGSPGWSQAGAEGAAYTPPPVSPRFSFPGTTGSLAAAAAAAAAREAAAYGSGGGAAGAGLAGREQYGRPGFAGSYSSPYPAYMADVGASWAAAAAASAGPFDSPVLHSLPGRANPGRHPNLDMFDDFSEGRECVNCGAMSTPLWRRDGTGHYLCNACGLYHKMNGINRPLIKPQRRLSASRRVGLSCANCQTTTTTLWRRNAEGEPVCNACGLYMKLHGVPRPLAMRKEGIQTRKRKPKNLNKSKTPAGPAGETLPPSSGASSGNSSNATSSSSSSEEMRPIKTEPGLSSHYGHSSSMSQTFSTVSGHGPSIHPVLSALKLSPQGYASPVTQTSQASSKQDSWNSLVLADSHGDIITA

Measured: binding result

CCTCTAGAGCCGGGTCTTATCTCCGGCTGCACGTTGC (double strand) [ET-1 probe]
binds: FLAG-GATA4 [1] | FLAG-GATA4 [2]; HA-p300 and GMP (GATA4 308-326 fragment) co-expressed, recruitment not suppressed | FLAG-GATA4 [2]; HA-p300 co-expressed (acetylation), recruitment increased
